The target of series [1] is GST-CSB-ADC R464A (Homo sapiens) (UniProt Q03468). The series is described as follows: EMSA. Particulars: reduced versus WT; EMSA (described for RAD52): 25 mM Tris-HCl pH 7.5, 1 mM MgCl2, 1 mM DTT, 50 ug/ml BSA, 50 mM NaCl, 15 min, 37 C, 6% PAGE-TBE at 4 C; recombinant protein; residues 444-509; protein details: GST; label: 5'-maleimide-IR800 on oligo 1 (DNA); DNA:RNA hybrid. In general terms: A gel shift assay detects complexes by their altered migration in electrophoresis.

Sequences of proteins named here, by UniProt entry; tags and fusion partners are left off. Residues count along the entry.
UniProt Q03468, 444-509 R464A: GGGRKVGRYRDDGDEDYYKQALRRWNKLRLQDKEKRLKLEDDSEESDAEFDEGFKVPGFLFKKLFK
UniProt P43351, whole entry K144A: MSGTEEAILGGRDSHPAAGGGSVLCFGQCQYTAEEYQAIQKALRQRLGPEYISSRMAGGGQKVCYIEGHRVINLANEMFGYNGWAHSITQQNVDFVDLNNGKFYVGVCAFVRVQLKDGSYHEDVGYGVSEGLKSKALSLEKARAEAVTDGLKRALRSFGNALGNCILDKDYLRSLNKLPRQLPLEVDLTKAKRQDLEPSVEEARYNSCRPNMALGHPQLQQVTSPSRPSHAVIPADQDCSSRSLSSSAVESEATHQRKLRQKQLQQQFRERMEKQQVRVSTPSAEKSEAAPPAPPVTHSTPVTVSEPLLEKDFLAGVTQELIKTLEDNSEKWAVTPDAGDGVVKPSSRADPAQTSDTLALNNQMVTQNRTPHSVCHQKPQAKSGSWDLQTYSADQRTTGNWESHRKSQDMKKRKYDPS

Series [2] addresses RAD52 K144A (Homo sapiens) (UniProt P43351). Nature of the series: EMSA. To be noted: 1 mM Mg2+, reduced versus WT; EMSA (described for RAD52): 25 mM Tris-HCl pH 7.5, 1 mM MgCl2, 1 mM DTT, 50 ug/ml BSA, 50 mM NaCl, 15 min, 37 C, 6% PAGE-TBE at 4 C; recombinant protein; protein details: C-terminal 6xHis; label: 5'-maleimide-IR800 on oligo 1 (DNA); DNA:RNA hybrid.
A further series deals with GFP-CSB-ADC R464A (UniProt Q03468). Nature of the series: pull-down. To be noted: reduced versus AD-C; pull-down: kit protein-RNA binding buffer, 15% glycerol, 30-60 min, 4 C; protein in a lysate after overexpression; residues 444-509; protein details: GFP (pEGFP-C1); DNA:RNA hybrid.

A weaker result is weaker than the reference pair of the same experiment. For part of these data: Construct, isoform or probe ends are uncertain for at least one entry. For part of these data: At least one result comes from cells or an extract, where the contact may be indirect.

Take “ATCATCACCATAACGTCGATGTATCAACTTCGATTAGTCACACCAATTAA / UUAAUUGGUGUGACUAAUCGAAGUUGAUACAUCGACGUUAUGGUGAUGAU [RNA-DNA hybrid (oligo 1/oligo 2)]”: the binding result in series [1] and in series [2] was “binds more weakly” each time.
With “ATCATCACCATAACGTCGATGTATCAACTTCGATTAGTCACACCAATTAA / UUAAUUGGUGUGACUAAUCGAAGUUGAUACAUCGACGUUAUGGUGAUGAU [biotin-labeled DNA:RNA hybrid (pull-down)]”, the binding result with GFP-CSB-ADC R464A was “binds more weakly”.

The values are drawn from PMC7026659.
